According to paper PMC4245968:
Results are given in words; binding and its absence hold for the method and conditions named. In cells and extracts the contact can be indirect. Some binding calls cover weakened binding; strength is not graded here. For part of these data: Tags and fused reporters may be left off the sequences shown.

The chains behind the UniProt entries cited, without tags or fusion partners.
UniProt E9Q1P8: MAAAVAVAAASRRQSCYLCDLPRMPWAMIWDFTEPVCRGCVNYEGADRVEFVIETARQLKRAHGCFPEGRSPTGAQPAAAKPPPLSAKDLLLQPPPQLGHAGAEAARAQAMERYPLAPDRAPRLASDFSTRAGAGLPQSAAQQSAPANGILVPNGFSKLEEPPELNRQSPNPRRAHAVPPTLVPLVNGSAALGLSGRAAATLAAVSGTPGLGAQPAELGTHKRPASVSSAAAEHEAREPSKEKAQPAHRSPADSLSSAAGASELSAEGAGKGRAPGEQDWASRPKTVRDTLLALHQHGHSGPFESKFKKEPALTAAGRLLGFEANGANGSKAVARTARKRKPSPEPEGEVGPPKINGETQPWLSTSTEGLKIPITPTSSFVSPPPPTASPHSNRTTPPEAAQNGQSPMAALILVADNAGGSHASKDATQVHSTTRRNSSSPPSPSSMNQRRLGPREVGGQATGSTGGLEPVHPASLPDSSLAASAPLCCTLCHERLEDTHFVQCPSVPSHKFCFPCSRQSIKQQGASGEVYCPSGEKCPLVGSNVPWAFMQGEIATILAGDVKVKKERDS

How the values were obtained:
[1] = target: T1, bio-tagged Ldb1 (UniProt P70662); assay: co-IP; streptavidin-IP: streptavidin-coated magnetic beads (Dynabeads M-280) on 1 mg nuclear extract diluted to 150 mM KCl, with 100 U benzonase, 3 h at room temperature, five washes with Heng150 (0.2% NP-40, 150 mM KCl); Western blot; MEL/BirA cells as control
T1 sequence: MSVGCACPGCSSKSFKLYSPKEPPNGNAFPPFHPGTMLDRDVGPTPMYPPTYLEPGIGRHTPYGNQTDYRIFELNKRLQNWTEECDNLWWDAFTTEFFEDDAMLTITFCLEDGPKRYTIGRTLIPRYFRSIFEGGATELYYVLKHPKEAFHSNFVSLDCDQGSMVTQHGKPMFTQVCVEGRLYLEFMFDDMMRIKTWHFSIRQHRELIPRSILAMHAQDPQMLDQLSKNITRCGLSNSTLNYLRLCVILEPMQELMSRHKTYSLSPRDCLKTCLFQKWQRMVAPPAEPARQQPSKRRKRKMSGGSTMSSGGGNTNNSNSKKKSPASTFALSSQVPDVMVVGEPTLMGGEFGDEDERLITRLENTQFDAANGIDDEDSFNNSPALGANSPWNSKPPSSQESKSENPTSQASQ

[2] = target: 3×Flag-Bio(NLS)-Irf2bp2 (mouse (cDNA from MEL cells)) (UniProt E9Q1P8); assay: co-IP; Flag-IP: 10 μg anti-Flag antibody (M2) and protein G magnetic beads on nuclear extract, 4 h at room temperature, otherwise as the streptavidin-IP; Western blot; MEL/BirA cells as control
[3] = target: 3×Flag-Bio(NLS)-Irf2bp2 (mouse (cDNA from MEL cells)) (UniProt E9Q1P8); assay: co-IP; streptavidin-IP: streptavidin-coated magnetic beads (Dynabeads M-280) on 1 mg nuclear extract diluted to 150 mM KCl, with 100 U benzonase, 3 h at room temperature, five washes with Heng150 (0.2% NP-40, 150 mM KCl); Western blot; MEL/BirA cells as control

B1: Fli-1 (protein, UniProt P26323 1-452)
chain: MDGTIKEALSVVSDDQSLFDSAYGAAAHLPKADMTASGSPDYGQPHKINPLPPQQEWINQPVRVNVKREYDHMNGSRESPVDCSVSKCNKLVGGGEANPMNYNSYMDEKNGPPPPNMTTNERRVIVPADPTLWTQEHVRQWLEWAIKEYGLMEIDTSFFQNMDGKELCKMNKEDFLRATSAYNTEVLLSHLSYLRESSLLAYNTTSHTDQSSRLNVKEDPSYDSVRRGAWNNNMNSGLNKSPLLGGSQTMGKNTEQRPQPDPYQILGPTSSRLANPGSGQIQLWQFLLELLSDSANASCITWEGTNGEFKMTDPDEVARRWGERKSKPNMNYDKLSRALRYYYDKNIMTKVHGKRYAYKFDFHGIAQALQPHPTETSMYKYPSDISYMPSYHAHQQKVNFVPSHPSSMPVTSSSFFGAASQYWTSPTAGIYPNPSVPRHPNTHVPSHLGSYY
[1]
  binding: binds

B2: Irf2 (protein, UniProt P23906 1-349)
chain: MPVERMRMRPWLEEQINSNTIPGLKWLNKEKKIFQIPWMHAARHGWDVEKDAPLFRNWAIHTGKHQPGIDKPDPKTWKANFRCAMNSLPDIEEVKDRSIKKGNNAFRVYRMLPLSERPSKKGKKPKTEKEERVKHIKQEPVESSLGLSNGVSGFSPEYAVLTSAIKNEVDSTVNIIVVGQSHLDSNIEDQEIVTNPPDICQVVEVTTESDDQPVSMSELYPLQISPVSSYAESETTDSVASDEENAEGRPHWRKRSIEGKQYLSNMGTRNTYLLPSMATFVTSNKPDLQVTIKEDSCPMPYNSSWPPFTDLPLPAPVTPTPSSSRPDRETRASVIKKTSDITQARVKSC
[2]
  binding: binds
[3]
  binding: binds
